# Several values for one entry are separate records, joined by “and”; a condition that tells them apart may be missing. Equal entries are not always repeated. About 17,000 (5.5%) of roughly 310,000 compounds were called active. Inconclusive means that the source gave no clear call. Such entries were picked first, then a sample of the others. Calls follow the shape of the dose curve; as a rule, active = well fitted inhibition curve with a large enough effect; inconclusive = small, poorly fitted or top-dose-only effect, or effect the other way; inactive = no such curve, though single readings can be large or run the other way. Where the call is inconclusive, the potency comes from a doubtful curve fit.
# Protein sequences, listed by entry. Tags and fused reporters are not part of them. Lines headed by an entry give the natural chain unless they say otherwise; changes in a name come on top.
# UniProt P51450: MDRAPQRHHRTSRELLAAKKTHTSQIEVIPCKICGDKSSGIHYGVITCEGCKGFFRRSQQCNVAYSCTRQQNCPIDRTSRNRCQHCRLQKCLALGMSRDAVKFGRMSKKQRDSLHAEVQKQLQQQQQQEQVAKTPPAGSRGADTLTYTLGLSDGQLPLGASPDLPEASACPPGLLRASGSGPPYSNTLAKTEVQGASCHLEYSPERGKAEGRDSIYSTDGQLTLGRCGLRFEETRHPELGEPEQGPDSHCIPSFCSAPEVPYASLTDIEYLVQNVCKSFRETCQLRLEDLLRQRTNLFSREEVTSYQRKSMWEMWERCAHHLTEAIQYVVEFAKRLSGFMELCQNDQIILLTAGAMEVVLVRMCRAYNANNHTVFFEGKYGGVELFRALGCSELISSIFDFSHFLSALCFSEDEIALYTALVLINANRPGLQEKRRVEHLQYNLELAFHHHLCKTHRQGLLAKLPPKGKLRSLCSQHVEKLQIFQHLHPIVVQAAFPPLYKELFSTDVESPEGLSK
# Molecular target: Nuclear receptor ROR-gamma (Mus musculus) (UniProt P51450)
# Experiment: qHTS for inhibitors of ROR gamma transcriptional activity; also: nearly all actives have a fitted effect of over 60% in size
# Conditions: Drosophila S2 Gal4-RORgamma UAS-luciferase reporter, 20 h; activity change, negative = inhibition: at 53.6 µM (top of the series)
# In short: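 Stable Schneider cell line, Gal4 DNA-binding domain fused to ROR gamma, UAS-luciferase. Cmpd 1 hr RT → CuSO4 700 uM final → 20 hr RT → luciferase reagent 10 min → luminescence.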
# % is scaled to controls: 0 for no effect and ±100 for the full control effect; potency is read from the fitted curve at half-maximal effect.
SMILES,Potency,"activity change, negative = inhibition"
COc1cc(/C=N/NS(=O)(=O)c2ccc(C)cc2)ccc1OCc1cccc(C(=O)O)c1,"inconclusive: 35.5 µM [inhibitor, single point]",–
C/C(N)=C(/C#N)C(=O)CSc1nc2ccccc2c(=O)n1Cc1ccc(C)cc1,active: 2.51 µM,–
COc1ccc(-n2c(=S)[nH]c3cc(C(=O)Nc4ccccc4OC)ccc3c2=O)cc1,active: 1.58 µM,–
CC(=O)Nc1ccc(N=NC2C(=O)N(C(N)=S)N=C2C)cc1 (stereo unspecified),active: 5.01 µM,–
CCC(=O)NC(Nc1sc2c(c1C(=O)OC)CCN(C)C2)(C(F)(F)F)C(F)(F)F,"inconclusive: 1.12 µM [inhibitor, partial curve]",–
CC(C)NC(=O)c1c(O)c2cccc3c2n(c1=O)CCC3,"inconclusive: 0.224 µM [activator, single point]",–
N/C(=N\OC(=O)c1ccccc1Cl)c1cccc([N+](=O)[O-])c1,"inconclusive: 35.5 µM [inhibitor, single point]",–
CCOC(=O)C(=O)Cc1nc2ccccc2s1,"inconclusive: 15.8 µM [inhibitor, single point]",–
C=CCn1c(CCC(O)CCCCC)n[nH]c1=S (stereo unspecified),"inconclusive: 22.4 µM [inhibitor, single point]",–
CN(Cc1ccccc1)C(=O)C1CCCN1S(=O)(=O)c1ccc2c(c1)n(C)c(=O)c(=O)n2C (stereo unspecified),inactive,–
CN(C)c1ccnc2sc(C(=O)NCc3ccccc3)c(N)c12,"inconclusive: 35.5 µM [activator, single point]",–
COc1ccc([C@]23Cc4ccccc4C(O2)c2c(c4ccc(OC)cc4oc2=O)O3)cc1,–,inactive: -4.35% [at 10 µM]
CS(=O)(=O)N1CCC(C(=O)Nc2ccccc2Br)CC1,inactive,–
COc1ccc(N2CCN(C(=O)c3ccc(Br)o3)CC2)cc1,inactive,–
Cc1ccc(-n2c(=S)[nH]c3[nH]ncc3c2=O)cc1,"inconclusive: 17.8 µM [inhibitor, partial curve]",–
COc1cccc(/C=N/Nc2nc3ccccc3[nH]2)c1O,active: 0.708 µM,–
CN1C(=O)/C(=C\c2ccc(OC(=O)c3ccco3)cc2)SC1=S,inactive,–
O=C(COC(=O)c1ccccc1C(=O)c1ccc(Cl)c([N+](=O)[O-])c1)NC1CC1,"inconclusive: 10 µM [inhibitor, partial curve]",–
CCOc1ccccc1CNC(=O)C1CCN(c2nnc(C)c3c(C)n(-c4ccc(C)cc4)nc23)CC1,active: 12.6 µM,–
O=C(Nc1ccc2c(c1)OCO2)C(c1ccc(Cl)cc1)N1CCC2(CC1)OCCO2 (stereo unspecified),"inconclusive: 14.1 µM [activator, partial curve, poor fit]",–
Cn1cnnc1SCC(=O)Nc1ccc2nc(SCc3cccc4ccccc34)sc2c1,"inconclusive: 7.94 µM [activator, partial curve, poor fit]",–
Cc1cc(Br)ccc1NC(=O)CN1C(=O)C2C3CC(c4ccccc4)C(C3)C2C1=O (stereo unspecified),"inconclusive: 12.6 µM [activator, partial curve]",–
CCc1cccc(C)c1NC(=O)c1cc(C)oc1C,"inconclusive: 35.5 µM [inhibitor, single point]",–

# A draw from above in order of heavy-atom count, descending.
SMILES,Potency,"activity change, negative = inhibition"
CN(Cc1ccccc1)C(=O)C1CCCN1S(=O)(=O)c1ccc2c(c1)n(C)c(=O)c(=O)n2C (stereo unspecified),inactive,–
COc1cc(/C=N/NS(=O)(=O)c2ccc(C)cc2)ccc1OCc1cccc(C(=O)O)c1,"inconclusive: 35.5 µM [inhibitor, single point]",–
CS(=O)(=O)N1CCC(C(=O)Nc2ccccc2Br)CC1,inactive,–

# More results:

SMILES,Potency,"activity change, negative = inhibition"
CC(=O)c1cc(F)c(N2CCN(C(=O)C(C)(C)C)CC2)cc1C,inactive,–
C=C1C(=O)OC2C=C(C)CCC=C(C)CCC12 (stereo unspecified),"inconclusive: 15.8 µM [inhibitor, partial curve]",–
Nc1nc(=S)n(-c2ccccc2)[nH]1,"inconclusive: 28.2 µM [inhibitor, single point]",–
CCSC1=C(C#N)C2(CCCC2)C(C#N)=C(N)N1,inactive,–
O=C1C=C(Nc2ccc(Cl)cc2)CC(c2ccccc2)C1 (stereo unspecified),"inconclusive: 15.8 µM [activator, partial curve]",–
COc1cccc(N2C(=O)CC(N3CCC(C(N)=O)(N4CCCCC4)CC3)C2=O)c1 (stereo unspecified),inactive,–
CSc1cccc(NC(=S)N(Cc2ccccc2)Cc2ccccn2)c1,active: 6.31 µM,–
CN(C)CCCNc1oc(-c2ccc(Cl)cc2)nc1C#N,"inconclusive: 8.91 µM [inhibitor, partial curve, poor fit]",–
CSc1ncccc1C(=O)OCc1ccccc1,"inconclusive: 3.55 µM [activator, partial curve, poor fit]",–
CC(C)(C)c1cc(C(=S)N2CCCC2)cc(C(C)(C)C)c1O,active: 6.31 µM,–
COc1cnc(-c2ccccn2)nc1NC(C)C,"inconclusive: 14.1 µM [inhibitor, partial curve, poor fit]",–
O=c1/c(=C\c2ccc(F)cc2)sc2n1CCCN=2,"inconclusive: 0.199 µM [activator, partial curve, poor fit]",–
Cc1cccc(NC(=S)NCCN2CCOCC2)c1,"inconclusive: 11.2 µM [inhibitor, partial curve]",–
O=C(C/C(=N\NC(=O)c1ccccc1Br)C(F)(F)F)c1cccs1,active: 14.1 µM,–
COc1ccc(S(=O)(=O)Nc2ccc3cn[nH]c3c2)cc1C,inactive,–
NCCOB(c1ccccc1)c1ccccc1,"inactive and inconclusive: 14.1 µM [inhibitor, partial curve] and inconclusive: 35.5 µM [inhibitor, single point]",–
COc1ccc(C(=O)NC(=S)Nc2ccc(CN3CCOCC3)cc2)cc1,active: 11.2 µM,–
COc1cccc(CN(C)Cc2c(O)ccc3ccccc23)c1,"inconclusive: 20 µM [inhibitor, single point]",–
CCC1CCCCN1C(=S)NC(=O)c1cccs1 (stereo unspecified),active: 0.708 µM,–
CCCC(=O)NC(=S)Nc1cccc(C(C)=O)c1,active: 10 µM,–
O=C1CC(Cc2ccc(Cl)cc2)C(=O)N1c1ccncc1 (stereo unspecified),"inconclusive: 1.26 µM [activator, partial curve, poor fit]",–
Cc1ccc(/C=N\NC(=O)c2ccc3c(c2)OCO3)o1,"inconclusive: 35.5 µM [inhibitor, single point]",–
Cc1nn(C)cc1C1Nc2ccccc2C(=O)N1O (stereo unspecified),"inconclusive: 35.5 µM [activator, single point]",–
